Data as given in PubChem BioAssay AID1259254 (NCATS, 2017)
Purpose: 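Finding genes that stop cells copying their DNA twice in one cycle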 (primary screen). Cells: human HCT116 colorectal cancer cells. Reagents: single siRNA against human genes. Timing: 3 days. Read-out: 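Nuclei stained with Hoechst and imaged; cell-cycle phase assigned by DNA content; G2 share scaled per plate, non-targeting siRNA 0%, GMNN siRNA 100%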. Direction: G2 robust z-score and G2 cells, % of GMNN control: higher = more G2 cells, more excess DNA replication. Rule for the call: 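An siRNA counts as active if its G2 robust z-score lies at least 5 MADs above the screen median; here such calls match roughly 38% of GMNN control or more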.
The deposit covers about 59,000 reagents; below is an unselected part. About 1,550 of all reagents (2.6%) count as active. 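G2 share is only a proxy for re-replication; each gene was hit by three separate siRNAs, and active genes were retested.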 Reagents against one gene are numbered here. Further read-outs or replicates are left out here. Not given: the amount of reagent.

Gene | reagent | G2 robust z-score | G2 cells, % of GMNN control | activity call
PCM1 | 1 | -0.164 | 1.82 | inactive
PCM1 | 2 | 0.543 | 6.79 | inactive
PCM1 | 3 | 0.668 | 7.67 | inactive
PIP5K1C | 1 | -1.35 | -6.54 | inactive
PIP5K1C | 2 | -0.0957 | 2.29 | inactive
PIP5K1C | 3 | -0.479 | -0.406 | inactive
RNF113B | 1 | 0.0525 | 3.34 | inactive
RNF113B | 2 | -0.433 | -0.0781 | inactive
RNF113B | 3 | -0.856 | -3.05 | inactive
ZNF385B | 1 | -0.605 | -1.29 | inactive
ZNF385B | 2 | 6.69 | 50.1 | active
ZNF385B | 3 | 5.6 | 42.4 | active
H3C3 | 1 | -0.00872 | 2.91 | inactive
H3C3 | 2 | 0.171 | 4.17 | inactive
H3C3 | 3 | -0.351 | 0.498 | inactive
BEND5 | 1 | -1.19 | -5.43 | inactive
BEND5 | 2 | -1.15 | -5.1 | inactive
BEND5 | 3 | -0.529 | -0.756 | inactive
NMNAT3 | 1 | 0.221 | 4.53 | inactive
NMNAT3 | 2 | 3.84 | 30 | inactive
NMNAT3 | 3 | -1.07 | -4.54 | inactive
FEM1A | 1 | -0.0718 | 2.46 | inactive
FEM1A | 2 | 0.898 | 9.29 | inactive
FEM1A | 3 | -0.87 | -3.16 | inactive
MMP2 | 1 | 0.325 | 5.25 | inactive
MMP2 | 2 | -0.327 | 0.665 | inactive
MMP2 | 3 | -0.495 | -0.517 | inactive
CMPK2 | 1 | -0.341 | 0.571 | inactive
CMPK2 | 2 | 5.3 | 40.3 | active
CMPK2 | 3 | -0.496 | -0.524 | inactive
SCN5A | 1 | 7.88 | 58.4 | active
SCN5A | 2 | 5.21 | 39.6 | active
SCN5A | 3 | -0.741 | -2.25 | inactive
PAXBP1 | 1 | 0.488 | 6.4 | inactive
PAXBP1 | 2 | -0.646 | -1.58 | inactive
PAXBP1 | 3 | -0.987 | -3.98 | inactive
TULP2 | 1 | 0.27 | 4.86 | inactive
TULP2 | 2 | 0.0724 | 3.48 | inactive
TULP2 | 3 | -0.417 | 0.0318 | inactive
IWS1 | 1 | 0.392 | 5.73 | inactive
IWS1 | 2 | 0.947 | 9.63 | inactive
IWS1 | 3 | -1.16 | -5.21 | inactive
DDX24 | 1 | 0.915 | 9.41 | inactive
DDX24 | 2 | 1.38 | 12.7 | inactive
DDX24 | 3 | 7.19 | 53.6 | active
OR4L1 | 1 | -0.23 | 1.35 | inactive
OR4L1 | 2 | 3.28 | 26.1 | inactive
OR4L1 | 3 | 0.326 | 5.26 | inactive

5 of these entries in another layout:
Gene	reagent	G2 robust z-score	G2 cells, % of GMNN control	activity call
TULP2	3	-0.417	0.0318	inactive
IWS1	1	0.392	5.73	inactive
IWS1	2	0.947	9.63	inactive
IWS1	3	-1.16	-5.21	inactive
DDX24	1	0.915	9.41	inactive
